Source: the supplement of paper PMC10849652
Some of the results follow.

Protein sequences, listed by entry. Tags and fused reporters are not part of them. Lines headed by an entry give the natural chain unless they say otherwise; changes in a name come on top.
UniProt P17931, whole entry, looked up: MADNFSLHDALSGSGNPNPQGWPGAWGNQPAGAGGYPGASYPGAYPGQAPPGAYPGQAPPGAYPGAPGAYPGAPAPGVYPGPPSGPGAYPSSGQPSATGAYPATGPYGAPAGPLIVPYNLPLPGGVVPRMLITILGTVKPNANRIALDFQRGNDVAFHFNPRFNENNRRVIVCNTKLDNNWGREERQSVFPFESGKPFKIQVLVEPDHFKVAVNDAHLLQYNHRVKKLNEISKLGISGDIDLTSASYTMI
UniProt Q5T7N2: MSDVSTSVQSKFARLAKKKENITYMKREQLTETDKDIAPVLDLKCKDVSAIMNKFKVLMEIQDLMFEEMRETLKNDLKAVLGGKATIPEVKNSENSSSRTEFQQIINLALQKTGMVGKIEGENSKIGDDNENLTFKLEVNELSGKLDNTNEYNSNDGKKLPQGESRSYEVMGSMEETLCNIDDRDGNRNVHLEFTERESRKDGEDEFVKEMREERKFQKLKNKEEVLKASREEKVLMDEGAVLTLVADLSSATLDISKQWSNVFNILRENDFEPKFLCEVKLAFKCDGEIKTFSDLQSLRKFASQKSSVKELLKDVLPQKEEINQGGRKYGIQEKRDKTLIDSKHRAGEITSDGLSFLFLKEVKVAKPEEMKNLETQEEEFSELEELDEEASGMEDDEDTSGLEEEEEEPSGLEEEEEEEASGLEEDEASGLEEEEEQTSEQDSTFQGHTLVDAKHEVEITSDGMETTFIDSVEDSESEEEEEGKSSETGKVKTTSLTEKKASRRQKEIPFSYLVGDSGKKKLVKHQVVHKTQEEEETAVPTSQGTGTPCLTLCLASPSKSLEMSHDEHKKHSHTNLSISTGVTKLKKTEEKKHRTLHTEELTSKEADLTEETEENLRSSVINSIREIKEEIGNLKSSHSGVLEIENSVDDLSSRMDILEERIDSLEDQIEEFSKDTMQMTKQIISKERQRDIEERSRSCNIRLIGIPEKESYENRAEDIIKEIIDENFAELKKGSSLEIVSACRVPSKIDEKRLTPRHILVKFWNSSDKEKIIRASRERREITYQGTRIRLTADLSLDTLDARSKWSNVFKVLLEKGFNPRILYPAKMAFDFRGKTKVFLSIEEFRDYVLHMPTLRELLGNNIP
UniProt Q15048: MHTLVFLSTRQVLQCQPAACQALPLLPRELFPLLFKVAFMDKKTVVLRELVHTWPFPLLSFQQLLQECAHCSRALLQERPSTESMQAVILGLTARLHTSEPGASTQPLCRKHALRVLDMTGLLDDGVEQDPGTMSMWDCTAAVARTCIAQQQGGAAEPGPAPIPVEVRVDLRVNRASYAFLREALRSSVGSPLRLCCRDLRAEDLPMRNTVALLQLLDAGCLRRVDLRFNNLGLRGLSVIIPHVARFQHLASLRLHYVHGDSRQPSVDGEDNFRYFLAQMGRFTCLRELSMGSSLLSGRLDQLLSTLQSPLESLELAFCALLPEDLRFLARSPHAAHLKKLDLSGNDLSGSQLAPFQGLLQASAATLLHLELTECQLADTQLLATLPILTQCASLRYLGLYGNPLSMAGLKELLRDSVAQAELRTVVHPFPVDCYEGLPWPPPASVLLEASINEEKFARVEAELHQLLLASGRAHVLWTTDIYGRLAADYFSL
UniProt Q9H9Z2: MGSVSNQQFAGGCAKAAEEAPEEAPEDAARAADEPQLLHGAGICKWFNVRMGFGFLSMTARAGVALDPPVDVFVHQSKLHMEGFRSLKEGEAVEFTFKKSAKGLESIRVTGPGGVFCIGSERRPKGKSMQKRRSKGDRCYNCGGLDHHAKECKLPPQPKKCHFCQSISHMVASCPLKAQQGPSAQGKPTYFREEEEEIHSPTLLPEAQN
UniProt P49917: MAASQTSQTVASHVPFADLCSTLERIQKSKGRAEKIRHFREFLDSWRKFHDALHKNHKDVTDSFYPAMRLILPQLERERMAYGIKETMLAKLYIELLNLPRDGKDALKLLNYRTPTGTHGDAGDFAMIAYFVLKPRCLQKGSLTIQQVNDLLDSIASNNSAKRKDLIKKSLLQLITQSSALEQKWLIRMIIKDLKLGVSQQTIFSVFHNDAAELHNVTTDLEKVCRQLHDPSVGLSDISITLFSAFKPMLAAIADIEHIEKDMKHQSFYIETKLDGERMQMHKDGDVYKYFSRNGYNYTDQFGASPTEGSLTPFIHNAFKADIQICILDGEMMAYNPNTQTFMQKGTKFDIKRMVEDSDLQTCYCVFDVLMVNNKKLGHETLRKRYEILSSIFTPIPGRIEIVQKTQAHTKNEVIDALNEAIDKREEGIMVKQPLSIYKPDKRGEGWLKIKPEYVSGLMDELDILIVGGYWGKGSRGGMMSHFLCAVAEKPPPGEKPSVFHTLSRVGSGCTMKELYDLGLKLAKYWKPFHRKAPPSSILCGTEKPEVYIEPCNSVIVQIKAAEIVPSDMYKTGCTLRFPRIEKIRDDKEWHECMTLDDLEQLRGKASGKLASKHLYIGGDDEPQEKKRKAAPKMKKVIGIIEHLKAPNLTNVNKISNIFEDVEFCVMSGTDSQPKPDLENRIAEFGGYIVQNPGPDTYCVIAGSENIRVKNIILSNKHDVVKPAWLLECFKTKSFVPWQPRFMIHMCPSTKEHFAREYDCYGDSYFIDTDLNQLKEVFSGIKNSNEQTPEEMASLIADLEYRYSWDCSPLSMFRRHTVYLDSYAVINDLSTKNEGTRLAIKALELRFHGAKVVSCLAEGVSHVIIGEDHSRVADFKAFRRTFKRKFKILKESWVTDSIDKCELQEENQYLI
UniProt P55268: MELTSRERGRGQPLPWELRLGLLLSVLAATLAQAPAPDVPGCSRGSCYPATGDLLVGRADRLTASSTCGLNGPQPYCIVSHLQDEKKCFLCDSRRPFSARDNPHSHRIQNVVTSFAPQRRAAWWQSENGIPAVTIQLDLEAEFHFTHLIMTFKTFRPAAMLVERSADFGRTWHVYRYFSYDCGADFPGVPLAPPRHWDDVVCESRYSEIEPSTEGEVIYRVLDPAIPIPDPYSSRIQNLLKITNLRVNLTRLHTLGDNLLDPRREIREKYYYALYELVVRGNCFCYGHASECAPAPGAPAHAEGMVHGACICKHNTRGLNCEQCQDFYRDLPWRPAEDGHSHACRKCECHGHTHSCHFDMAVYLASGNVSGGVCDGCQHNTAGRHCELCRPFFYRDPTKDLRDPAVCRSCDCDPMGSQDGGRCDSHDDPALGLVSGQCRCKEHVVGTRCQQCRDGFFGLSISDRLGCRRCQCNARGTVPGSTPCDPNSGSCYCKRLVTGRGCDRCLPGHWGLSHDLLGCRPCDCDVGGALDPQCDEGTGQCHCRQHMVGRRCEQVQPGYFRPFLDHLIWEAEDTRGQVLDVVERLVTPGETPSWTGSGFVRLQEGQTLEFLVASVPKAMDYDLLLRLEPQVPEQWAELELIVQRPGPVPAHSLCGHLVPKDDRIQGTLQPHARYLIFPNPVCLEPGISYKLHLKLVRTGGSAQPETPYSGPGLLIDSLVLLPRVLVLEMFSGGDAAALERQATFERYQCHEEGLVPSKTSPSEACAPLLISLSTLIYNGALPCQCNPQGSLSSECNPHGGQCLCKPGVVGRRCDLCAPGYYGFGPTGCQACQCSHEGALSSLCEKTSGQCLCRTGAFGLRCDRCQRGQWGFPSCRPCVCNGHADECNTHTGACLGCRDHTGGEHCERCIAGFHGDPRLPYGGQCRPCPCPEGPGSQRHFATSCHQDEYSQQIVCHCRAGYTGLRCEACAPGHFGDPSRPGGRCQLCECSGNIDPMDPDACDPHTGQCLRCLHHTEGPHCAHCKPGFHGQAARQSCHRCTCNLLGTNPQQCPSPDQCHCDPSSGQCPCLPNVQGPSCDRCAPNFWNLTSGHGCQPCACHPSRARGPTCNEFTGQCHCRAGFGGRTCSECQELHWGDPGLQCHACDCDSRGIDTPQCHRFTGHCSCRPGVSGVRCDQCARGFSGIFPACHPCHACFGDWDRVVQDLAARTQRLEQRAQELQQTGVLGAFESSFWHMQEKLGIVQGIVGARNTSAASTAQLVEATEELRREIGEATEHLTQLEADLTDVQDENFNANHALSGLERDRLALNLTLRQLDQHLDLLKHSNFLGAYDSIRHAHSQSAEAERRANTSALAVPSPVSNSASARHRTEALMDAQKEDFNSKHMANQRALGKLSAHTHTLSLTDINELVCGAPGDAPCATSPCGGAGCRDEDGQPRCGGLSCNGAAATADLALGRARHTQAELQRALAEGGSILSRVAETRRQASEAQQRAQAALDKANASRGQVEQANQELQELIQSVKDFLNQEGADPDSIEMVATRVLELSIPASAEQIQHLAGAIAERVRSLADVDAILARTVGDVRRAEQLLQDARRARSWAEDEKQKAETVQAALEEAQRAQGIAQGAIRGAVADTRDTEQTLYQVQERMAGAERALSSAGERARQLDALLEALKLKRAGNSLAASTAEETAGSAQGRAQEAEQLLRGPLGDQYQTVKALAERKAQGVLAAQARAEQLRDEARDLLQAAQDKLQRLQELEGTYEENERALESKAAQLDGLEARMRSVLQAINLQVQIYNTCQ
UniProt P11047: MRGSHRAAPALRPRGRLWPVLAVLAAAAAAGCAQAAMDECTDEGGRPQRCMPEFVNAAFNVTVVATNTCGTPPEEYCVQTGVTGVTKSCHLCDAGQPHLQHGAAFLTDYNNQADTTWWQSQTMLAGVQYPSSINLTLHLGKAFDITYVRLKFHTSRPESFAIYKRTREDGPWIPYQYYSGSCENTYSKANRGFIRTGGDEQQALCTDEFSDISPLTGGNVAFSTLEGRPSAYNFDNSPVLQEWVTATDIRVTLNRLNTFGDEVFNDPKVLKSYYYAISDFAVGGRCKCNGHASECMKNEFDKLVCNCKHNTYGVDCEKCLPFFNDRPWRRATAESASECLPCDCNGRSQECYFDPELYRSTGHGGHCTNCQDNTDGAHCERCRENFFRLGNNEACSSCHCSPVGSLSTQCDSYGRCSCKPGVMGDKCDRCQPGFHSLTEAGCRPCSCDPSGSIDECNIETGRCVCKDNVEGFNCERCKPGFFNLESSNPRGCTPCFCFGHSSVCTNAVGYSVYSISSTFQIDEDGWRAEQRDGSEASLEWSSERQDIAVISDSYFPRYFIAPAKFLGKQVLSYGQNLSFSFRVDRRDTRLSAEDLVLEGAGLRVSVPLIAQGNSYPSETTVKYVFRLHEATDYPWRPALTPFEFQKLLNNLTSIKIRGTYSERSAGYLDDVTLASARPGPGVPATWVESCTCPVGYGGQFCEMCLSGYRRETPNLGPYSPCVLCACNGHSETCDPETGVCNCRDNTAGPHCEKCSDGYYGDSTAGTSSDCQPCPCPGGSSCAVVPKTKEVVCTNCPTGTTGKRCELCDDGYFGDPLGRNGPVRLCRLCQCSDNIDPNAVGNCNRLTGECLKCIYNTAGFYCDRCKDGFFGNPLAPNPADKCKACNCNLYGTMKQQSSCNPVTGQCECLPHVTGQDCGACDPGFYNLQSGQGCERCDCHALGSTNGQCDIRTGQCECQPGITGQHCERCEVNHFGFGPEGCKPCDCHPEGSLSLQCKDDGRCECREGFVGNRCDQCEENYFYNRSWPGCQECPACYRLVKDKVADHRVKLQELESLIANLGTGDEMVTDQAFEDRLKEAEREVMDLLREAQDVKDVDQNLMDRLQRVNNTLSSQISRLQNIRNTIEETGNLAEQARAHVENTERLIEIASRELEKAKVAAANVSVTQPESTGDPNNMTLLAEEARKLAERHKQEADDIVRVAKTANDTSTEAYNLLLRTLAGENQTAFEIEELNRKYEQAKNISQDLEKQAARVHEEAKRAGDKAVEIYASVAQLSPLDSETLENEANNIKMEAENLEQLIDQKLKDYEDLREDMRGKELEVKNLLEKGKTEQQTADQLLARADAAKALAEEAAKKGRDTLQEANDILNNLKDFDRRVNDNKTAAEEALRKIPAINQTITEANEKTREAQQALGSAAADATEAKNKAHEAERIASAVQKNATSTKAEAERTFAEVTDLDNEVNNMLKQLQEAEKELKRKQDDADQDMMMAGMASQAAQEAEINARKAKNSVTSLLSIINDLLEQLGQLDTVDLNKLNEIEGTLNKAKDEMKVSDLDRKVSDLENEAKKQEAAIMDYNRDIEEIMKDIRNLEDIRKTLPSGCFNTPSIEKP
UniProt P13473: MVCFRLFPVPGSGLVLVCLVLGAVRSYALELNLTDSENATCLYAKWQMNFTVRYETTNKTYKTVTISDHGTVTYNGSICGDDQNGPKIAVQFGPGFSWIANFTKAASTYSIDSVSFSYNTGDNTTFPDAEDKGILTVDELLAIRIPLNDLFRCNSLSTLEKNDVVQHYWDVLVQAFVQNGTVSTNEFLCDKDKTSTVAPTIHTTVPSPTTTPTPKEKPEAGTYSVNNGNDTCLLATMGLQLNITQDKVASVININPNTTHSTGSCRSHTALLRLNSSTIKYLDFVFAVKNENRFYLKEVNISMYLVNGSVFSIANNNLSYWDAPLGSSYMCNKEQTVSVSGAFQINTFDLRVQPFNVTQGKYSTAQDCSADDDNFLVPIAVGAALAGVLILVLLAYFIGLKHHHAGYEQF

compound: C[C@H](Nc1ncnc2nc[nH]c12)c1cc2cccc(Cl)c2c(=O)n1-c1ccccc1 [duvelisib]; test: log2 fold change, soluble protein after heating vs DMSO (PISA); higher = thermal stabilisation; K562 cells, 10 uM, 30 min; active = over 0.2 and 3.5 SD of the protein, either way, in both replicates (recomputed)
In short: (§1)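 For each measurement, 10 μM compound was applied for 30 min to K562 cells at 2×10^6 cells/mL. Aliquots were heated for 3 min across 48°C-58°C, pooled, and extracted in PBS with 0.5% NP-40 at 4°C; the supernatant after 21,000xg for 90 min was soluble protein. This was quantified by TMTpro 16plex LC-MS/MS with channel sums equalised, and thermal stability was reported relative to control samples from duplicates, on a log2 fold-change scale.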

| Target | log2 fold change |
| --- | --- |
| LGALS3 (UniProt P17931) | inactive: 0.067 |
| LAPTM5 (UniProt Q13571) | inactive: 0.173 |
| LRRC42 (UniProt Q9Y546) | inactive: 0.351 |
| L1TD1 (UniProt Q5T7N2) | inactive: 0.183 |
| LEG1 (UniProt Q6P5S2) | inactive: 0.079 |
| LRRC14 (UniProt Q15048) | inactive: 0.041 |
| LIN28A (UniProt Q9H9Z2) | inactive: 0.117 |
| LIG4 (UniProt P49917) | inactive: 0.098 |
| LRP1 (UniProt Q07954) | inactive: -0.054 |
| LAMB2 (UniProt P55268) | inactive: -0.069 |
| LRP5 (UniProt O75197) | inactive: -0.054 |
| LAMC1 (UniProt P11047) | inactive: -0.135 |
| LAMA5 (UniProt O15230) | inactive: 0.045 |
| LGALSL (UniProt Q3ZCW2) | inactive: -0.289 |
| LEPROTL1 isoform 2 (UniProt O95214) | inactive: -0.071 |
| LMLN isoform 3 (UniProt Q96KR4) | inactive: -0.056 |
| LMO4 (UniProt P61968) | inactive: 0.038 |
| LAMP2 isoform 2 (UniProt P13473) | active: 0.344 |

compound: Cc1cc(Nc2cc(CN3CCOCC3)c3nc(C)c(Cc4ccc(Cl)cc4F)n3n2)n[nH]1 [gandotinib]; test: as above
In short: as §1

| Target | log2 fold change |
| --- | --- |
| KXD1 (UniProt Q9BQD3) | inactive: -0.156 |
| LGALS3 (UniProt P17931) | inactive: -0.037 |
| LAPTM5 (UniProt Q13571) | inactive: -0.066 |
| LRRC42 (UniProt Q9Y546) | inactive: -0.15 |
| L1TD1 (UniProt Q5T7N2) | inactive: -0.199 |
| LEG1 (UniProt Q6P5S2) | inactive: -0.151 |
| LATS1 (UniProt O95835) | inactive: 0.072 |
| LIN28A (UniProt Q9H9Z2) | inactive: -0.026 |
| LIG4 (UniProt P49917) | inactive: 0.082 |
| LAPTM4B (UniProt Q86VI4) | inactive: 0 |
| LRP1 (UniProt Q07954) | inactive: -0.066 |
| LLGL2 (UniProt Q6P1M3) | inactive: -0.387 |
| LGMN (UniProt Q99538) | inactive: 0.24 |
| LRP5 (UniProt O75197) | inactive: -0.07 |
| LAMC1 (UniProt P11047) | inactive: 0.071 |
| LAMA5 (UniProt O15230) | inactive: 0.197 |
| LEPROT (UniProt O15243) | inactive: 0.081 |
| LMO4 (UniProt P61968) | inactive: 0.062 |
| LARP1B, A0A3B3ISF0 | inactive: 0.084 |
| LAMP2 isoform 2 (UniProt P13473) | inactive: 0.066 |

compound: Cc1cc(Nc2cc(N3CCN(C)CC3)nc(Sc3ccc(NC(=O)C4CC4)cc3)n2)n[nH]1 [tozasertib]; test: as above
In short: as §1

| Target | log2 fold change |
| --- | --- |
| LAPTM5 (UniProt Q13571) | inactive: 0.113 |
| LRRC42 (UniProt Q9Y546) | inactive: -0.052 |
| L1TD1 (UniProt Q5T7N2) | inactive: -0.18 |
| LRRC14 (UniProt Q15048) | inactive: -0.045 |
| LRP1 (UniProt Q07954) | inactive: -0.027 |
| LAMB2 (UniProt P55268) | inactive: -0.132 |
| LHFPL2 (UniProt Q6ZUX7) | inactive: -0.027 |
| LRP5 (UniProt O75197) | inactive: 0.241 |
| LCN2 isoform 2 (UniProt P80188) | inactive: 0.111 |
| LIMD2 (UniProt Q9BT23) | inactive: -0.071 |
| LAMA5 (UniProt O15230) | inactive: -0.19 |
| LEPROTL1 isoform 2 (UniProt O95214) | inactive: 0.066 |
| LMO4 (UniProt P61968) | inactive: -0.046 |

compound: Cc1cc(SCc2sc(-c3ccc(C(F)(F)F)cc3)nc2C)ccc1OCC(=O)O; test: as above
In short: as §1

| Target | log2 fold change |
| --- | --- |
| KXD1 (UniProt Q9BQD3) | inactive: 0.012 |
| LGALS3 (UniProt P17931) | inactive: -0.07 |
| LAPTM5 (UniProt Q13571) | inactive: -0.354 |
| LRRC42 (UniProt Q9Y546) | inactive: -0.056 |
| L1TD1 (UniProt Q5T7N2) | inactive: -0.209 |
| LEG1 (UniProt Q6P5S2) | inactive: -0.023 |
| LRRC14 (UniProt Q15048) | inactive: 0.019 |
| LIN52 (UniProt Q52LA3) | inactive: -0.059 |
| LIN28A (UniProt Q9H9Z2) | inactive: -0.049 |
| LIG4 (UniProt P49917) | inactive: 0.335 |
| LRP1 (UniProt Q07954) | inactive: 0.014 |
| LAMB2 (UniProt P55268) | inactive: 0.077 |
| LRP5 (UniProt O75197) | inactive: 0.014 |
| LAMC1 (UniProt P11047) | inactive: 0.526 |
| LAMA5 (UniProt O15230) | inactive: 0.045 |
| LGALSL (UniProt Q3ZCW2) | inactive: -0.155 |
| LEPROT (UniProt O15243) | inactive: -0.026 |
| LEPROTL1 isoform 2 (UniProt O95214) | inactive: -0.092 |
| LMLN isoform 3 (UniProt Q96KR4) | inactive: 0.24 |
| LMO4 (UniProt P61968) | inactive: -0.092 |
| LAMP2 isoform 2 (UniProt P13473) | inactive: 0.011 |
